# From PubChem BioAssay AID2685 (National Center for Advancing Translational Sciences (NCATS), 2010)
# In all, about 320,000 compounds went through this assay and about 2,100 (0.66%) were called active. Inconclusive means that the source gave no clear call. Such entries were picked first, then a sample of the others. Calls come from the whole dose curve; as a rule, active = well fitted inhibition curve with a large enough effect in the signal ratio, with a control signal flat (not every such curve was filed as active); inconclusive = small, poorly fitted or top-dose-only effect, or effect the other way, or a change in a side signal; inactive = flat fitted curve, though single readings scatter; the % refers to the signal ratio. A potency beside an inconclusive call is a rough fit, not a confirmed value.
# Experiment: qHTS Assay for Lipid Storage Modulators in Drosophila S3 Cells
# Conditions: BODIPY lipid droplet fluorescence, 18-24 h, cells fed with added oleic acid; lipid storage change, negative = inhibition: at 46.1 µM (top of the series) unless noted
# Summary of the method: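 Drosophila S3 cells loaded with oleic acid (400 uM, as added) and compounds at several concentrations; lipid droplets imaged by 488-nm laser-scanning cytometry, 500–530 nm intensity and object ratio to cell channel. Percent activity normalized to 20 uM Triacsin C.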
# % is set by controls: 0 for no effect and ±100 for the full control effect; potency is the fitted concentration of half-maximal effect.
SMILES,"lipid storage change, negative = inhibition",Potency
CCN(C(=O)CCS(=O)(=O)c1cccc2nsnc12)c1cccc(C)c1,inconclusive: 26.2%,–
CC1=C(C(=O)OC2CCCCCCC2)C(c2ccc(O)cc2)NC(=O)N1 (configuration not stated),inconclusive: 6.8% [at 9.22 µM],–
COc1ccc(C2SCCN2S(=O)(=O)c2ccc(NC(C)=O)cc2)cc1 (configuration not stated),–,"inconclusive: 8.2 µM [activator, partial curve]"
Cc1c(F)cccc1NC(=O)CSCC(=O)Nc1ccccc1,–,"inconclusive: 0.58 µM [rising, full curve]"
Cc1cc(=O)oc2ccc(OCC(=O)N(Cc3ccc(F)cc3)Cc3ccco3)cc12,inconclusive: 63.3%,–
CC1(C)Cc2c(c(N3CCOCC3)nc3sc(C#N)c(N)c23)CS1,–,"inconclusive: 0.58 µM [activator, full curve]"
CCc1c(C(=O)N2CCCN(C)CC2)csc1C,inconclusive: -23.3%,–
COc1cccc(CNC(=O)CS(=O)(=O)Cc2nc(-c3ccc(C)cc3)oc2C)c1OC,inconclusive: -36.1%,–
CCCCc1nc2ccccc2c(NC(=O)CNC(C)(C)C)c1CCC,inconclusive: 8.2%,–
O=C(CN1C(=O)c2ccccc2S1(=O)=O)Nc1ccc(S(=O)(=O)N2CCCCC2)cc1,inconclusive: 5%,–
C[C@@H](C(=O)Nc1ccc2ccccc2c1)[C@@H]1C[C@@]1(C)[C@@H](NC(=O)OCc1ccccc1)c1ccccc1,–,"inconclusive: 7.31 µM [falling, partial curve]"
CC(C)(C)OC(=O)N[C@@H](C(=O)OC(C)(C)C)c1ccc2ccccc2c1,–,"inconclusive: 0.058 µM [falling, partial curve, poor fit]"
Cc1oncc1C(=O)NC(C)C,–,"inconclusive: 0.058 µM [falling, full curve, poor fit]"
Cc1[nH]c2ccccc2c1C(=O)/C=C/c1ccccc1Cl,–,"inconclusive: 0.259 µM [activator, full curve]"
CCOc1ccc(C(c2c(C)[nH][nH]c2=O)c2c(C)[nH][nH]c2=O)cc1OCC,inconclusive: -26.7%,–
NC(=O)c1ccccc1NC(=O)Nc1cccc(Cl)c1,–,"inconclusive: 29.1 µM [rising, single point]"
Cc1ccc(CN(C(=O)c2cc(=O)c3cc(Cl)c(C)cc3o2)C2CCS(=O)(=O)C2)cc1 (configuration not stated),–,"inconclusive: 16.4 µM [falling, single point]"
CC1(OC(=O)CCc2ccccc2)C(=O)C=C2C=C(c3ccc(C#N)cc3)N(C3CCCCC3)C=C2C1=O (configuration not stated),inactive: 0.672%,–
O=C1OC(c2ccc(Cl)cc2)=N/C1=C\C=C\c1ccco1,inconclusive: 64%,–
CCCCOC(=O)N1CCOCCOCCN(C(=O)OCCCC)CCOCCOCC1,inconclusive: -8.86%,–
Cc1ccc(CNc2ncnc(N)c2[N+](=O)[O-])cc1,inconclusive: 20.2% [at 9.22 µM],–
CCOc1ccccc1NC(=O)Nc1cc(S(=O)(=O)N(C)C)ccc1C,–,"inconclusive: 0.82 µM [falling, full curve, poor fit]"
O=C(CCC(=O)Nc1ccccc1Cl)NNC(=O)NC1CCCCC1,inconclusive: -5.58%,–
CC(=O)NCCn1c(SCC(=O)NCCC(C)C)nc2ccccc2c1=O,inconclusive: 9.01%,–

# Complete entries as entered above. Order of values: lipid storage change, negative = inhibition	Potency
# CCOc1ccccc1NC(=O)Nc1cc(S(=O)(=O)N(C)C)ccc1C in the list: –	inconclusive: 0.82 µM [falling, full curve, poor fit]
# CCc1c(C(=O)N2CCCN(C)CC2)csc1C in the list: inconclusive: -23.3%	–
# CC1(C)Cc2c(c(N3CCOCC3)nc3sc(C#N)c(N)c23)CS1 in the list: –	inconclusive: 0.58 µM [activator, full curve]
# NC(=O)c1ccccc1NC(=O)Nc1cccc(Cl)c1 in the list: –	inconclusive: 29.1 µM [rising, single point]

# Next part:

SMILES,"lipid storage change, negative = inhibition",Potency
CCOC(=O)c1c(C)[nH]c(C2=NNC(=Nc3ccc(OCC)cc3)SC2)c1C,inconclusive: 34.8%,–
COc1ccc(S(=O)(=O)N(CC(=O)Nc2cc(C)on2)Cc2ccccc2)cc1,–,"inconclusive: 1.3 µM [activator, full curve, poor fit]"
CCCCc1n[nH]c(=S)n1Cc1ccccc1,inconclusive: -20.5%,–
COc1ccccc1N1CCN(c2ccc3cc(S(=O)(=O)N4CCCCC4)ccc3n2)CC1,inconclusive: 21.8%,–
O=C(NC1CCCC1)C(c1ccsc1)N(Cc1ccco1)C(=O)Cc1cccs1 (configuration not stated),–,"inconclusive: 29.1 µM [activator, single point]"
O=C(CN1C(=O)COc2ccc(Cl)cc21)Nc1nccs1,inconclusive: 9.35%,–
O=C(CSc1nnc(C2CC2)n1C1CC1)c1ccc(F)c(F)c1,inconclusive: 3.85%,–
CC(OC(=O)c1nsc(Cl)c1Cl)C(=O)NCc1cccs1 (configuration not stated),–,active: 32.6 µM
COc1cc(OC)c(C2=NOC(C(=O)NCc3cccs3)C2)cc1Cl (configuration not stated),inconclusive: -4.52%,–
N#Cc1c(-c2ccccc2Cl)c2c([nH]c1=O)-c1ccccc1OC2,inconclusive: -19%,–
COc1ccccc1/C=C1\SC(=S)N(CCC(=O)NNC(=O)c2ccccc2OC)C1=O,–,"inconclusive: 29.1 µM [falling, single point]"
C/C(=N\NC(=S)NCCc1ccccc1)c1ccc(Cl)cc1Cl,–,"inconclusive: 11.6 µM [activator, single point]"
O=C(CCCn1c(SCC(=O)Nc2ccccc2Cl)nc2ccccc2c1=O)NCC1CCCO1 (configuration not stated),inconclusive: -62.6%,–
Cn1c(Cc2ccc3c(c2)OCO3)nnc1SCC(=O)N1CCc2ccccc2C1,–,"inconclusive: 0.146 µM [activator, partial curve, poor fit]"
CCOC(=O)C1=C(c2ccccc2)N=C2SCC(=O)N2C1c1ccc2c(c1)OCO2 (configuration not stated),inconclusive: 22.4%,–
COc1ccc(C(=O)C2CCCN(Cc3c(C)[nH]c4ccccc34)C2)c(OC)c1 (configuration not stated),inconclusive: -1.79%,–
CCn1c(SCC(=O)NCCc2ccccc2)nnc1-c1cccs1,–,"inconclusive: 13 µM [activator, single point]"
CCOC(=O)Cc1nnc(NC(=O)CSc2nncn2C)s1,inconclusive: -13.7%,–
CC12CCC(C(=O)N3CCCc4ccccc43)(OC1=O)C2(C)C (configuration not stated),inconclusive: 23.1%,–
CCc1nnc(NC(=O)CCC(=O)N2CCN(Cc3cc(Cl)ccc3OC)CC2)s1,–,"inconclusive: 1.16 µM [activator, full curve, poor fit]"
Cc1cc(NC(=O)CSc2nnc(-c3ccco3)n2C)no1,inactive: 5.6%,–
COc1nc(OC)nc(N2CCC(NC(=O)C(Cc3cccc(OC)c3OC)NC(C)=O)CC2)n1 (configuration not stated),–,"inconclusive: 3.26 µM [falling, full curve, poor fit]"
NC(=O)C1CCN(C2=C(NS(=O)(=O)c3ccc(Cl)cc3)C(=O)c3ccccc3C2=O)CC1,–,"inconclusive: 32.6 µM [falling, single point]"
CCOCCCNC(=O)c1ccc2c(c1)OCO2,–,"inconclusive: 18.4 µM [activator, single point]"

# Structures listed so far containing a tert-butyl group, in the order listed:
SMILES,"lipid storage change, negative = inhibition",Potency
CCCCc1nc2ccccc2c(NC(=O)CNC(C)(C)C)c1CCC,inconclusive: 8.2%,–
CC(C)(C)OC(=O)N[C@@H](C(=O)OC(C)(C)C)c1ccc2ccccc2c1,–,"inconclusive: 0.058 µM [falling, partial curve, poor fit]"

# Additional compounds follow.

SMILES,"lipid storage change, negative = inhibition",Potency
C=CCN1C(=NC(=O)COc2ccccc2)SC2CS(=O)(=O)CC21 (configuration not stated),–,"inconclusive: 16.4 µM [activator, single point]"
O=C(N/N=C/c1cc(Cl)ccc1O)C(=O)Nc1ccccc1OC(F)(F)C(F)F,–,"inconclusive: 0.651 µM [falling, single point]"
CCCOc1ccc(C(=O)N2CCCc3ccccc32)cc1,–,"inconclusive: 2.31 µM [activator, partial curve]"
CSCCC(NC(=O)c1ccccc1)C(=O)NCCCn1nc(C)cc1C (configuration not stated),inconclusive: -8.89%,–
COc1ccc(CCNc2cc(C)nc3c(-c4ccccc4)c(C)nn23)cc1OC,inconclusive: -26.6%,–
CCc1ccc(C(=O)NC(C(=O)O)C(C)C)cc1 (configuration not stated),inconclusive: 78.5%,–
O=C(COC(=O)c1cc[n+]([O-])cc1)Nc1ccc2c(c1)OCCO2,inconclusive: -16.5%,–
C=C(C)CSc1nnc([C@@H]2CCCN2)o1,inactive: 6.25%,–
COc1cc2c(cc1OC)C1=NC(=O)CN1C(SCc1ccc(C)cc1)=N2,–,"inconclusive: 29.1 µM [falling, single point]"
Cc1noc(/C=C/N(C)C)c1S(=O)(=O)N1CCCC(C(=O)N2CCCCC2)C1 (configuration not stated),inconclusive: 0.875%,–
N#CCCn1cc(C(=O)Nc2ccc(C(=O)O)cc2)c(-c2cc3ccccc3o2)n1,–,"inconclusive: 0.58 µM [falling, single point]"
COC(=O)CC1Oc2ccc(C)cc2NC1=O (configuration not stated),inconclusive: -22.6%,–
Cc1ccc(-c2nc3ccc([N+](=O)[O-])cc3[nH]2)cc1,inconclusive: -1.69%,–
COc1ccc(/C(N)=C/C(=O)C(C)(C)C)cc1,inconclusive: 6.55%,–
CCOC(=O)Nc1cc(C(=O)OC)cc(C(=O)OC)c1,–,"inconclusive: 2.06 µM [activator, full curve, poor fit]"
CCOc1nc(C)cc(C)c1S(=O)(=O)c1cccc(Cl)c1,inconclusive: 11.2%,–
CN(C)CC(=O)c1c(N)n(Cc2ccccc2)c(=O)n(C)c1=O,inconclusive: -8.15%,–
CCCCCCc1cc2cc(/C(N)=N/NC(=O)c3ccncc3)c(=O)oc2cc1O,inconclusive: 59.1%,–
CCOc1ccc(C2=C(C=C(C#N)C#N)C(c3ccccc3)c3ccccc3O2)cc1 (configuration not stated),–,"inconclusive: 2.06 µM [activator, full curve, poor fit]"
CCOc1ccc(CC(=O)Nc2ccc(S(=O)(=O)Nc3cc(C)on3)cc2)cc1OCC,inconclusive: 32%,–
Cc1ccc(C)c(Cn2c3ccccc3c3cnn(CC(=O)NCCCN4CCOCC4)c(=O)c32)c1,–,"inconclusive: 2.91 µM [activator, single point]"
CCOC(=O)c1c(C)[nH]c(C(=O)OC(C)C(=O)Nc2ccccc2OC)c1C (configuration not stated),–,"inconclusive: 29.1 µM [rising, single point]"
CCOc1cc(C(=O)Nc2ccc(S(=O)(=O)NC3=NCCCCC3)cc2)cc(Br)c1OC,–,"inconclusive: 1.84 µM [activator, full curve, poor fit]"
Cc1ccc2nc(NCc3ccco3)c(C=NCc3ccco3)c(=O)n2c1,inconclusive: 16.8%,–
